Results taken from US20220402981A1.
These are yes or no findings as the source states them, for the method shown. Some binding calls cover weakened binding; strength is not graded here.

Chains of the proteins cited; added tags and fusions are not shown. Lines headed by an entry give the natural chain unless they say otherwise; changes in a name come on top.
UniProt Q14498: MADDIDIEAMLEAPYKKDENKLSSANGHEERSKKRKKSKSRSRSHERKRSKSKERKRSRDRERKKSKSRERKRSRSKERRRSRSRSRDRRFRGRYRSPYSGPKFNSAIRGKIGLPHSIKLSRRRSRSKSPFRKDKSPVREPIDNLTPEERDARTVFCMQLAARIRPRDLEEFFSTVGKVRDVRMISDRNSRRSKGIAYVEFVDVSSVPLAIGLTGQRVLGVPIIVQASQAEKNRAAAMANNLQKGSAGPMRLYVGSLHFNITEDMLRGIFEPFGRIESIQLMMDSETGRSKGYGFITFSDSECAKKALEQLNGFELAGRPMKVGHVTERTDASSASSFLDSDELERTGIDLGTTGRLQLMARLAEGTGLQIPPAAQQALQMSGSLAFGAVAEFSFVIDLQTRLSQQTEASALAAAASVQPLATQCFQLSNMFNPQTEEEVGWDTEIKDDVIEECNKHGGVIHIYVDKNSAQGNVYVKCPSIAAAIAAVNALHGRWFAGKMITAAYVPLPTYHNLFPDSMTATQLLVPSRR

Molecular target: BodipyFL-maleimide-labelled DCAF15-Spycatcher (UniProt Q66K64)
Experiment: TR-FRET with E7820 (FIG. 16); wild-type reference

biotinylated Strep II Avi-tagged RBM39RRM2 (from UniProt Q14498 245-332)
binding: binds
